The text below walks through data of patent US5854388A, “Angiotensin IV peptides and receptor” (Washington State University Research Foundation, priority 1994, dated 1998).

The chains behind the UniProt entries cited, without tags or fusion partners. Residues count along the entry.
UniProt F1N1Q8, 1-1022: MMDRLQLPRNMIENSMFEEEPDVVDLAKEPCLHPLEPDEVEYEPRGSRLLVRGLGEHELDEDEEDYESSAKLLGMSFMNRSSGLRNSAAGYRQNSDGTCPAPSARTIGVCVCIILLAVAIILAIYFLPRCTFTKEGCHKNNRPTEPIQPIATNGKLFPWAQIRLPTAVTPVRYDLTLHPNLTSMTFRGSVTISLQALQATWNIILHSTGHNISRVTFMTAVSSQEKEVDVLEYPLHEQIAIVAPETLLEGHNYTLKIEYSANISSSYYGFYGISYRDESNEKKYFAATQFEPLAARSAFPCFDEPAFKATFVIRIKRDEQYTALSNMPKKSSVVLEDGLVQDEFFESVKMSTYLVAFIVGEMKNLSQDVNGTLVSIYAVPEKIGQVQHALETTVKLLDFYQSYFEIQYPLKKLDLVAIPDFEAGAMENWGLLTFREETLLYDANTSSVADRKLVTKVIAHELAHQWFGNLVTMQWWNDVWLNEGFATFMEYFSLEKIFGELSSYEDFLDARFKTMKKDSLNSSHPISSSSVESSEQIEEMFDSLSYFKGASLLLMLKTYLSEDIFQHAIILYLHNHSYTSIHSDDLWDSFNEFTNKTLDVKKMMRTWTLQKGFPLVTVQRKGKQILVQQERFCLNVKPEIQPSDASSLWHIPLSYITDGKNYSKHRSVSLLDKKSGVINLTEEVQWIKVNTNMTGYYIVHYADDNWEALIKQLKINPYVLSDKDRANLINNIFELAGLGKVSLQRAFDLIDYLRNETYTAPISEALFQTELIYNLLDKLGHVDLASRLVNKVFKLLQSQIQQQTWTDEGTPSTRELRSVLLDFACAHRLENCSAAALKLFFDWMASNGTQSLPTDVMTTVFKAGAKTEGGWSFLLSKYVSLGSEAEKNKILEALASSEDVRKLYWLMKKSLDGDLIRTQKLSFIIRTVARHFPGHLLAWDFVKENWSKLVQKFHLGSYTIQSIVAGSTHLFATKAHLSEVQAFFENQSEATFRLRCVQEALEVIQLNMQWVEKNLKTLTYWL

Test [1] deals with AT4 receptor (Bos taurus, UniProt F1N1Q8). In words: 125I-AIV binding and competition, solubilized bovine adrenal cortical receptor.
The test system of test [2] is rat kidney. In words: Renal cortical blood flow (laser doppler) and arterial pressure after infusion into the renal artery. The test is classed as in vivo.

Structures were worked out from names or drawings and are uncertain.

For `CC[C@H](C)[C@H](NC(=O)[C@@H](N)Cc1ccc(O)cc1)C(=O)N[C@@H](Cc1cnc[nH]1)C(=O)N1CCC[C@H]1C(=O)N[C@@H](Cc1ccccc1)C(=O)O` [AII(4-8), YIHPF], the “binding to solubilized AT4 receptor (in words)” value in test [1] is “inactive”. For the same compound, in test [1] (competition of 125I-AIV binding), the Ki is greater than 1 µM. For the same compound, in test [2], the “effect on renal blood flow (in words)” value is given as “no effect on renal blood flow”.
